The values below come from the supplement of paper PMC11006884.

Protein sequences, listed by entry. Tags and fused reporters are not part of them. Lines headed by an entry give the natural chain unless they say otherwise; changes in a name come on top.
UniProt Q8IUI8: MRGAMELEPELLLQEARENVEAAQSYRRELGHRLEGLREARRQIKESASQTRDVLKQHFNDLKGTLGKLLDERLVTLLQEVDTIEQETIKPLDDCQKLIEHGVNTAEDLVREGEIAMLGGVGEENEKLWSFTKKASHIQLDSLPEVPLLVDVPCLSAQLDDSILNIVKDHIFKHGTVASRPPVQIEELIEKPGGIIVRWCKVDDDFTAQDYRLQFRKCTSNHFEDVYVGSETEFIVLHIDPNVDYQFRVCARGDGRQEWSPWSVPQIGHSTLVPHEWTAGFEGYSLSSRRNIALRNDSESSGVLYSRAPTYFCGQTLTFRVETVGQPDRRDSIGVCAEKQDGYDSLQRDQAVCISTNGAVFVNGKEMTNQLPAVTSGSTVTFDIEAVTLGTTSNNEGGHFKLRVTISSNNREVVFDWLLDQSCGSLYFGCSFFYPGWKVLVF
UniProt Q86WR0: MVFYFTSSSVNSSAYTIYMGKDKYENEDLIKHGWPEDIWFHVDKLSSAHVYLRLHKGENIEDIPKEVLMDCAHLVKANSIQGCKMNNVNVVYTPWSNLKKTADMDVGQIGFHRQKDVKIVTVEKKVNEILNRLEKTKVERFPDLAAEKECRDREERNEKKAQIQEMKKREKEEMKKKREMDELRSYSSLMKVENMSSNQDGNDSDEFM
UniProt Q7Z3B3: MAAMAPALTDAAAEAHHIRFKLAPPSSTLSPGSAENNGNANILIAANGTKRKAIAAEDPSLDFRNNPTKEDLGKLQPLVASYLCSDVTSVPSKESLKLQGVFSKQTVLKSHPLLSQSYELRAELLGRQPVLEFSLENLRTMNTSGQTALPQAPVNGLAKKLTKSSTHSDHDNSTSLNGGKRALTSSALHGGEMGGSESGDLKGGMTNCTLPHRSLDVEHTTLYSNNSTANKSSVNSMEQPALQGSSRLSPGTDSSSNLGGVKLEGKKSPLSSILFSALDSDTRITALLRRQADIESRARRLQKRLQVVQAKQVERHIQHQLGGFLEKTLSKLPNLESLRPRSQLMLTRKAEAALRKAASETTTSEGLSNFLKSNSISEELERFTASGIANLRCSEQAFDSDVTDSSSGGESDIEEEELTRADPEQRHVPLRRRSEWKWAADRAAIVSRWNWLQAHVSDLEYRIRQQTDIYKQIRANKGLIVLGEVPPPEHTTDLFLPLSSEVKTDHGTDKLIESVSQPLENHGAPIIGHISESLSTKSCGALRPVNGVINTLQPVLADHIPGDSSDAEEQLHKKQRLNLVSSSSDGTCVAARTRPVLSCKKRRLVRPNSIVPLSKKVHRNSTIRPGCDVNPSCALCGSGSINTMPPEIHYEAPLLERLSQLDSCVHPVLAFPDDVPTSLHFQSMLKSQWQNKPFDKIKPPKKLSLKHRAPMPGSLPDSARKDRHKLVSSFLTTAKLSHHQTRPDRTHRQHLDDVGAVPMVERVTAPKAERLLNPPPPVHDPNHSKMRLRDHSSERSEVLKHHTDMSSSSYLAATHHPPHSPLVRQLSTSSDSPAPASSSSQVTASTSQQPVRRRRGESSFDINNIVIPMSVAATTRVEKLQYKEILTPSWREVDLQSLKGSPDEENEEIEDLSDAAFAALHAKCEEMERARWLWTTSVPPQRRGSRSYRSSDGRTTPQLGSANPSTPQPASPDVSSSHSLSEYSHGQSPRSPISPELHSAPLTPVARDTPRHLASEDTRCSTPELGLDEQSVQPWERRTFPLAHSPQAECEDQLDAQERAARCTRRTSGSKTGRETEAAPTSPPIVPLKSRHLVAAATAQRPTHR
UniProt Q7LBC6: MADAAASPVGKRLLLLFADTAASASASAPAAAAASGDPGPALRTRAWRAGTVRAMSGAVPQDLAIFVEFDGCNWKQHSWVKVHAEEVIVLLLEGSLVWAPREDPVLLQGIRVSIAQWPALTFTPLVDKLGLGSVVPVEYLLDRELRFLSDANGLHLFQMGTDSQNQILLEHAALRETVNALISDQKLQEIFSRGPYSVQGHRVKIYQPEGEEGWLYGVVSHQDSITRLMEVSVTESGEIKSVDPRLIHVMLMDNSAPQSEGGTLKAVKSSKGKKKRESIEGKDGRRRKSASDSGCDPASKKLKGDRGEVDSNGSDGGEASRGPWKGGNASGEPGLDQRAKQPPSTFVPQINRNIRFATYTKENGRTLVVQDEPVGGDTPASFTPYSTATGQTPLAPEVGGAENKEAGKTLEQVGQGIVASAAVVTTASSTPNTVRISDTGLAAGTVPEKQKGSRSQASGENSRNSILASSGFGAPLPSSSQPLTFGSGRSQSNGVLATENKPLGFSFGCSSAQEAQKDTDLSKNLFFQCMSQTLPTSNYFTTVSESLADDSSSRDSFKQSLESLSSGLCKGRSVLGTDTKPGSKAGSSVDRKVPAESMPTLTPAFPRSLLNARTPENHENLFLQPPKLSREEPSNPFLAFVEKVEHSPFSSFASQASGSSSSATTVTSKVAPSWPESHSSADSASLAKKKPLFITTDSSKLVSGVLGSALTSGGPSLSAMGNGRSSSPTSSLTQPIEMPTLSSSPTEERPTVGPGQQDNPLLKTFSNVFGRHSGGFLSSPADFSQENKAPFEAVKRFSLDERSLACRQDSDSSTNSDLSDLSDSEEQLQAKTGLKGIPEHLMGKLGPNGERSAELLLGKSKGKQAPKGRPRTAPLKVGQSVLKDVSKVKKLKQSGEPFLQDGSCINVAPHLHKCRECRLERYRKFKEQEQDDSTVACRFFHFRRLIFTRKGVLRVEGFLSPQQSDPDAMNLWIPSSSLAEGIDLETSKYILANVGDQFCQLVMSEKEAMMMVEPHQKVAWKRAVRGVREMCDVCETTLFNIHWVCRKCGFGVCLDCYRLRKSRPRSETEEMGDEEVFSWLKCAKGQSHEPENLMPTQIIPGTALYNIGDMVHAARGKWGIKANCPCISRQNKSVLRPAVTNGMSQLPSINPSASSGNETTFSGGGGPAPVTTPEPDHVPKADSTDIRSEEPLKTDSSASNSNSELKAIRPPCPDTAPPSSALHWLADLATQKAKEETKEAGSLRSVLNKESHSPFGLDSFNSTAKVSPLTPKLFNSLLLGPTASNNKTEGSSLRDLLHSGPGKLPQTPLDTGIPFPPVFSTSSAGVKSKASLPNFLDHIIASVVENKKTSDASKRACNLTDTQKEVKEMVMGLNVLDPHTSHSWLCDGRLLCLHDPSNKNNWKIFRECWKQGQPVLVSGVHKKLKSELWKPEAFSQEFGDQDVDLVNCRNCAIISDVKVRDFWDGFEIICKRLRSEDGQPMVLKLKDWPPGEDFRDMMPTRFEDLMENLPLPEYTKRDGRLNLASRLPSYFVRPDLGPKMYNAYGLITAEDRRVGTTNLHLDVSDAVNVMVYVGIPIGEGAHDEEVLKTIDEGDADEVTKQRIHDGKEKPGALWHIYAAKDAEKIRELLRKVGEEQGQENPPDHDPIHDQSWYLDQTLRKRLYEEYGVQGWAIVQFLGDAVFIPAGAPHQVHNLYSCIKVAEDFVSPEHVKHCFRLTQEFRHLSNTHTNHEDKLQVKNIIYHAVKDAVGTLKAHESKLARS
UniProt Q7Z7A4: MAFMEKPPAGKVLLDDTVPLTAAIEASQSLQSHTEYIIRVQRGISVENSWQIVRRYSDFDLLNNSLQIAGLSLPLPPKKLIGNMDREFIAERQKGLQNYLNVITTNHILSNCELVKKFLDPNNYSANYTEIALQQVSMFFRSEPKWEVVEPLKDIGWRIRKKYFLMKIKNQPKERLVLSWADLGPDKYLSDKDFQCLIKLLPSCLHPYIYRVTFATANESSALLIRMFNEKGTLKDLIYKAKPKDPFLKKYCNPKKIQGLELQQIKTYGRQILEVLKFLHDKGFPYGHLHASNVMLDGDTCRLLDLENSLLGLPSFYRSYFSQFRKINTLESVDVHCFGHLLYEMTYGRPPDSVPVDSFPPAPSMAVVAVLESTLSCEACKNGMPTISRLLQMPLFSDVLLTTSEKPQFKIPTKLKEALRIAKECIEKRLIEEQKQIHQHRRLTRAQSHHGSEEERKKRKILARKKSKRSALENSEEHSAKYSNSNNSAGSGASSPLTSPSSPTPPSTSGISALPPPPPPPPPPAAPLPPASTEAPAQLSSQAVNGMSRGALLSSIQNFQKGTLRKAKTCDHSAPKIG
UniProt Q8IYB7: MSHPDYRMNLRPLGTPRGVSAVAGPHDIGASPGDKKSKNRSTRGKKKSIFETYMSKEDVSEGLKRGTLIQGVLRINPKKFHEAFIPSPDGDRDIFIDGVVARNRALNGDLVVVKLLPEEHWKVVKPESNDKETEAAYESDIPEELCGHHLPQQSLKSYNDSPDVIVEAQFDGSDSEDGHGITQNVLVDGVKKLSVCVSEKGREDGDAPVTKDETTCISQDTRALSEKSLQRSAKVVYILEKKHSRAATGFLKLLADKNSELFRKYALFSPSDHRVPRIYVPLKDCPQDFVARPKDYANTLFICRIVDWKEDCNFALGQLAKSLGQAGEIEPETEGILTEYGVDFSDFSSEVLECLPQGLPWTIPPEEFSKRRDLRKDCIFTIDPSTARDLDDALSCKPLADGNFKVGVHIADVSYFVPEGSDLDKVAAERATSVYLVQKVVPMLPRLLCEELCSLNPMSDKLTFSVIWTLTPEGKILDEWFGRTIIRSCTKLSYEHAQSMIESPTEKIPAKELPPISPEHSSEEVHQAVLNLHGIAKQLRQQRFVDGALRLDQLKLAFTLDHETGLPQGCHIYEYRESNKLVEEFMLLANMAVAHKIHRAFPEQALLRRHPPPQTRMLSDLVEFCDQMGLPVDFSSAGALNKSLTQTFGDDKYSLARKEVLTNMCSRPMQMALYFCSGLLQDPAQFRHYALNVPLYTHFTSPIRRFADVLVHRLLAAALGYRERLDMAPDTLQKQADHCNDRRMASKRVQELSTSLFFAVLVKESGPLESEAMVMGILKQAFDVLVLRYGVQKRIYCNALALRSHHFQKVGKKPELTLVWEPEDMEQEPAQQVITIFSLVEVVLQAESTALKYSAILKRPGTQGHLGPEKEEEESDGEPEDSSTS
UniProt Q7Z7A3: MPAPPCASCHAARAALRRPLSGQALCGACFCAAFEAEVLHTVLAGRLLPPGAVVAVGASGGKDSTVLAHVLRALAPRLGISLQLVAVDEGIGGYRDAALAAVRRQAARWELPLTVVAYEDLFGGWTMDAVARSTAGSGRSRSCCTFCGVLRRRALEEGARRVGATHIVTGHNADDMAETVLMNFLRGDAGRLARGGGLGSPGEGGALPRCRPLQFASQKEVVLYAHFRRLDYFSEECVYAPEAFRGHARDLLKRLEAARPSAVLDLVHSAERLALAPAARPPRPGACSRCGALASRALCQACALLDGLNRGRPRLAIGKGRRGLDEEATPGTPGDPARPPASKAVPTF
UniProt Q8IWD4: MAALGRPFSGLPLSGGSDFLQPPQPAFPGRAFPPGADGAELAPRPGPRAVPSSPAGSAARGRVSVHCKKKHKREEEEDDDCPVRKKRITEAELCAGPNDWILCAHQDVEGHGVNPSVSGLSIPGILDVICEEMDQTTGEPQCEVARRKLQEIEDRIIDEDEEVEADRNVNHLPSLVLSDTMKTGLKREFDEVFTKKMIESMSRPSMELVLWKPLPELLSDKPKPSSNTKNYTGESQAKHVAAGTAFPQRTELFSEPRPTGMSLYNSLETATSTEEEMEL
UniProt Q7Z4W1: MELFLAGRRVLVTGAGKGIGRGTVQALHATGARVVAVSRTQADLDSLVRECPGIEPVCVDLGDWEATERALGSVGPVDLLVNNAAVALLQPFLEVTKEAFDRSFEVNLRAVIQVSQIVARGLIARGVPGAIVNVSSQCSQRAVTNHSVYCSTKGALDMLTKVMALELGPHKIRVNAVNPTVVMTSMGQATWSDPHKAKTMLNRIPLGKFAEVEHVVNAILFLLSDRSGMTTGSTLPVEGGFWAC
UniProt Q7L2J0: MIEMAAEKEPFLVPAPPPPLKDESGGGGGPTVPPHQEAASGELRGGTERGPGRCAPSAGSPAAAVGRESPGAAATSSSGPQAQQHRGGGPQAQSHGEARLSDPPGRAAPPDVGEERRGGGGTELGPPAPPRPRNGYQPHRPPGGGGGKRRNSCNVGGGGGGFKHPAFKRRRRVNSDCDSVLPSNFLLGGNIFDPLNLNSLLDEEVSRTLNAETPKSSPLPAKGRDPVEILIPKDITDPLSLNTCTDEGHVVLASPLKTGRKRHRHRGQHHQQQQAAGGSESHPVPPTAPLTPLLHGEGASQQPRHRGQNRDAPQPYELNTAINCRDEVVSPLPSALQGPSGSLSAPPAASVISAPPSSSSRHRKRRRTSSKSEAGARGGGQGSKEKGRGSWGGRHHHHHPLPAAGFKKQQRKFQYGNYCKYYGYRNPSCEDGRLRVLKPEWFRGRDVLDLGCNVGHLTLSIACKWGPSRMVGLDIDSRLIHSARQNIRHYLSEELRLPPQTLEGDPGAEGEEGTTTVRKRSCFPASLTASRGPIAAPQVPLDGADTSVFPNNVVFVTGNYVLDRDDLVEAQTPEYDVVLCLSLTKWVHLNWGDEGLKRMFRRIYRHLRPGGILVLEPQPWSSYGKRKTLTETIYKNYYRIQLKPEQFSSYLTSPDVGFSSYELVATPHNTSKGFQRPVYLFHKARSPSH

Shown are results outside the selection of targets with a hit, which stands elsewhere. Single values of this set are uncertain. Only a part is listed here, and it is no random draw.

Compound in this experiment: COC(=O)/C=C/c1ccccc1 [methyl cinnamate]
The experiment in a line: log2 ratio of iodoacetamide-alkyne labeling of the cysteine site, DMSO over compound (competition); higher = stronger covalent engagement of the cysteine by the compound, active = 1 or more. To be noted: 500 µM; treatment time 1 h; system: HEK293T cell lysate. In a few lines: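 HEK293T lysate (2 mg/mL) was treated with DMSO or electrophile (500 µM, 1 h, ambient temperature), then iodoacetamide alkyne (1 h), clicked to sCIP-TMT reagents, pooled, trypsin-digested overnight at 37 °C, streptavidin-enriched and acid-eluted. Peptides were run on Orbitrap Eclipse LC-MS/MS with FAIMS and quantified in FragPipe. The log2 competition ratio per cysteine is mean control-channel over mean compound-channel reporter intensity. Duplicate channels and three replicates were used, and cysteines quantified in only one replicate were excluded.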
Take SESTD1 C618 (UniProt Q86VW0): the “log2 ratio of iodoacetamide-alkyne labeling” value (“log2 ratio” for short) is inactive: 0.00175.
For the target THOC6 C314 (UniProt Q86W42), the “log2 ratio” value was inactive: -0.0721.
As for FTSJ3 C197 (UniProt Q8IY81), the figure is inactive: -0.0517.
Regarding WDFY1 C401 (UniProt Q8IWB7), the “log2 ratio” value was inactive: 0.23.
As to DHX40 C33 (UniProt Q8IX18), the “log2 ratio” value was inactive: 0.284.
As for MGA C2202 (UniProt Q8IWI9), the figure is inactive: 0.284.
As for CRLF3 C95 (UniProt Q8IUI8), the figure is inactive: 0.0319; as for CCDC25 C83 (UniProt Q86WR0), inactive: 0.248; as for CHERP C246 (UniProt Q8IWX8), inactive: -0.0552.
SLFN11 C51 (UniProt Q7Z7L1): the “log2 ratio” value is inactive: -0.0631.
As for SLFN11 C760 (UniProt Q7Z7L1), the figure is inactive: 0.123; as for KANSL1 C1020 (UniProt Q7Z3B3), inactive: 0.12; as for UniProt Q7LBC6_C509, inactive: 0.379.
TMEM192 C266 (UniProt Q8IY95): the “log2 ratio” value is inactive: 0.161.
On to HUWE1 C689 (UniProt Q7Z6Z7), for which the “log2 ratio” value was inactive: -0.181.
As for WDR75 C12 (UniProt Q8IWA0), the figure is inactive: 0.0357.
Then PXK C570 (UniProt Q7Z7A4), with inactive: 0.313.
As for DIS3L2 C146 (UniProt Q8IYB7), the figure is inactive: -0.0896; as for UniProt Q7Z7A3_C287, inactive: -0.219.
As to EMSY C1211 (UniProt Q7Z589), the “log2 ratio” value was inactive: 0.258.
In the case of CCDC117 C81 (UniProt Q8IWD4), the “log2 ratio” value is inactive: 0.462.
Then RBBP6 C44 (UniProt Q7Z6E9), with inactive: 0.279; and HUWE1 C3658 (UniProt Q7Z6Z7), with inactive: 0.44.
As for ERI1 C75 (UniProt Q8IV48), the “log2 ratio” value was inactive: 0.263.
Then N4BP2 C1145 (UniProt Q86UW6), with inactive: 0.217.
Turning to DHX30 C673 (UniProt Q7L2E3), the “log2 ratio” value is inactive: 0.0349.
In the case of DCXR C138 (UniProt Q7Z4W1), the “log2 ratio” value is inactive: 0.0729.
Then UniProt Q7Z695_C54, with inactive: 0.323; and MEPCE C244 (UniProt Q7L2J0), with inactive: 0.116.
On to DHX30 C309 (UniProt Q7L2E3), for which the “log2 ratio” value is inactive: 0.517.
As for ZC3HAV1 C645 (UniProt Q7Z2W4), the “log2 ratio” value was inactive: 0.316.
Regarding UniProt Q7Z434_C46, the “log2 ratio” value is inactive: -0.167.
Regarding MEPCE C429 (UniProt Q7L2J0), the “log2 ratio” value is inactive: 0.28.
Regarding ANKLE2 C254 (UniProt Q86XL3), the “log2 ratio” value is inactive: 0.137.
For UniProt Q8IX90_C290, the “log2 ratio” value was inactive: -0.541.
As for DCXR C150 (UniProt Q7Z4W1), the figure is inactive: 0.037; as for UniProt Q8IX01_C656, inactive: 0.197.
